# In article PMC5247571 (International Journal for Parasitology: Drugs and Drug …, 2017):
# Test system: blowfly larvae (Lucilia cuprina)
# Experiment: Blowfly larval bioassay
# Assay type: in vivo
# Conditions: L. cuprina LS strain; number of pupae on Day 9 vs controls; 2 experiments
structure (smiles),measurement,value
"O=C(CCCCCCC(=O)Nc1ccccc1)NO [SAHA, suberoylanilide hydroxamic acid]","Blowfly bioassay, pupation, IC50",>1000 μg/assay
